Data: patent US7897565B2, “Compositions for HCV treatment” (priority 2004, dated 2011)
Some results were stated once for a whole list of compounds, not compound by compound.

System: Balb/c spleen cells
Test: Mixed Lymphocyte Reaction (MLR), activity relative to cyclosporin A
Assay type: cell-based, mice
Excerpt: Cyclosporins which bind strongly to cyclophilin but are not immunosuppressive have been identified. A cyclosporin is considered to be non-immunosuppressive when it has an activity in the Mixed Lymphocyte Reaction (MLR) of no more than 5%, preferably no more than 2%, that of cyclosporin A. The Mixed Lymphocyte Reaction is described by T. Meo in “Immunological Methods”, L. Lefkovits and B. Peris, Eds., Academic Press, N.Y. pp. 227-239 (1979). Spleen cells (0.5×10^6) from Balb/c mice (female, 8˜10 weeks) are co-incubated for 5 days with 0.5×10^6 irradiated (2000 rads) or mitomycin C treated spleen cells from CBA mice (female, 8˜10 weeks). The irradiated allogeneic cells induce a proliferative response in the Balb/c spleen cells which can be measured by labeled precursor incorporation into the DNA. […] The IC50 found for the test compound in the MLR is compared with that found for cyclosporin A in a parallel experiment. In addition, non-immunosuppressive cyclosporins lack the capacity of inhibiting CN and the downstream NF-AT pathway.

C/C=C/C[C@@H](C)[C@@H](O)[C@H]1C(=O)N[C@@H](CC)C(=O)N(C)CC(=O)N(C)[C@@H]([C@@H](C)CC)C(=O)N[C@@H](C(C)C)C(=O)N(C)[C@@H](CC(C)C)C(=O)N[C@@H](C)C(=O)N[C@H](C)C(=O)N(C)[C@@H](CC(C)C)C(=O)N(C)[C@@H](CC(C)C)C(=O)N(C)[C@@H](C(C)C)C(=O)N1C [NIM811, [Melle]^4-Ciclosporin]
IR (Immunosuppressive Ratio), percentage of the activity relative to Cyclosporin A: < 1%
